# Values joined by “and” are separate entries in the source; they are usually repeats but may differ in a detail not shown here. Identical values can stand only once. The list shows a part of the results. Shown are side measurements of this screen, not its main read-out; they come without a call. Most of these compounds were active or inconclusive in the main read-out, so they are no random draw. The note in brackets gives the kind of curve behind each potency; many fits are weak.
# Experiment: qHTS Assay to Find Inhibitors of Chronic Active B-Cell Receptor Signaling
# Details: ABC-DLBCL IkBa-CBG/CBR reporter, luminescence ratio (green luciferase fused to IkBa over red control in TMD8 lymphoma cells), 4 h
# In short: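 Concentration-response series (up to 46 uM) were applied to TMD8 dual-reporter cells for 4 h at 37C with doxycycline. Green/red ratio, after filter-overlap correction, defined %Activity; red signal alone was normalised to basal cells and zero luminescence.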
# [1] = measured here: CBR red luminescence, cell number
# [2] = measured here: IkBa-CBG green luminescence
Compound,AC50 [1],AC50 [2]
O=C(CSc1nnc(C2CCCCC2)o1)N1CCCCC1,"12.6 µM [rising, partial curve]",–
COc1ccc(CN2CCN(Cc3c[nH]c4ccccc34)CC2CCO)cc1C (stereo unspecified),"17.8 µM [falling, partial curve, poor fit]",–
CC1Sc2ccc(S(=O)(=O)N3CCC(C(=O)Nc4cccc(Cl)c4)CC3)cc2NC1=O (stereo unspecified),"14.1 µM [falling, single point]",–
O=C(CCN1C(=O)S/C(=C\c2ccc(Cl)cc2)C1=O)Nc1ccc(C(=O)O)cc1,"2.82 µM [falling, single point]",–
O=C(Cc1ccccc1)Nc1nc2ccccc2s1,"14.6 µM [falling, single point]",–
CSc1ccccc1NC(=O)CN(C)CC(=O)Nc1ccccc1N1CCOCC1,"0.562 µM [rising, full curve, poor fit]",–
NC(=O)CC(NC(=O)Cc1cccc2ccccc12)c1ccc(NCc2cc(F)ccc2F)c([N+](=O)[O-])c1 (stereo unspecified),"0.794 µM [rising, full curve, poor fit]",–
CCOC(=O)c1sc(=NC(=O)c2ccc(OC(C)C)cc2)n(C)c1C,"35.5 µM [falling, single point]",–
O=C(/C=C/c1ccc(Cl)cc1Cl)NCCSc1ccccc1,"1.46 µM [falling, partial curve, poor fit]",–
CN(C)c1ccc(-c2cc(O)c3ncccc3c2)cc1,"1.64 µM [rising, full curve, poor fit] and 6.51 µM [rising, partial curve, poor fit]",–
OCc1cn(-c2ccccc2)nc1-c1ccc2c(c1)OCCO2,"0.82 µM [rising, partial curve, poor fit]",–
Cc1ccc(C)c(NC(=S)NNC(=O)c2sccc2C)c1,"22.4 µM [falling, single point]",–
COc1ccc(C)cc1Nc1c2c(nc3ccccc13)CCC2,"12.6 µM [rising, partial curve]","15.8 µM [falling, single point]"
Cc1ccc(NC(=S)NCc2ccc(Cl)cc2)c(C)c1,"35.5 µM [falling, single point]",–
CC(=O)Nc1ccc(S(=O)(=O)NCC(=O)NC(C)c2ccc(S(N)(=O)=O)cc2)cc1 (stereo unspecified),"35.5 µM [rising, single point]",–
Nc1[nH]nc2nc(N3CCCC3)nc(-c3ccccc3)c12,"35.5 µM [falling, single point]",–
Nc1c2nc(-c3ccccc3Cl)[nH]c(=O)c2nc(=O)n1-c1ccccc1,"6.31 µM [falling, full curve, poor fit]",–
CC(=O)c1ccc(C(=O)Nc2nnc(-c3ccc(Cl)cc3)o2)cc1,"10 µM [falling, partial curve]",–
CN(C)c1ccc(NC(=S)c2ccc3ccccc3n2)cc1,"2.51 µM [rising, partial curve]",–
CSc1ccccc1NC(=O)Nc1cccc(Cl)c1,"3.26 µM [falling, partial curve]",–
CC(C)c1ccc(NC(=O)c2cnn(-c3ccccc3)c2NC(=O)c2ccco2)cc1,"7.08 µM [rising, partial curve, poor fit]",–

Compound,AC50 [1],AC50 [2]
S=C(N/N=C1\C2CN3CCN(C2)CC1(c1ccccc1)C3)Nc1ccccc1,"29.1 µM [rising, single point]",–
COc1ccc(O)c(/C=N/c2sc(C)c(C)c2C#N)c1,"6.51 µM [falling, single point]",–
Cc1ccc(C(=O)c2coc3ccc(O)c(CN(C)C)c23)cc1,"35.5 µM [falling, partial curve, poor fit]",–
CCN(CC)C(=S)NC(=O)c1ccc(F)cc1,–,"35.5 µM [falling, partial curve, poor fit]"
CC(C)c1cc(-c2cc(-c3ccccc3)on2)nc(NC2CCCC2)n1,"28.2 µM [rising, single point]",–
CCCCn1c(C)cc2cc(O)ccc21,"23.1 µM [rising, partial curve]",–
O=C(c1ccco1)N1CCN(C(=O)c2ccc(-c3ccccc3Cl)o2)CC1,"29.1 µM [falling, single point]",–
Cc1cccnc1Nc1nc(-c2ccccn2)cs1,"14.6 µM [falling, partial curve, poor fit]","18.4 µM [falling, single point]"
CCCCn1c(N)c(N(C(=O)CSc2nnnn2-c2ccccc2)C2CCCC2)c(=O)[nH]c1=O,"16.4 µM [rising, single point]",–
Cc1cccc(Nc2ncnc3ccccc23)c1,"7.31 µM [falling, partial curve]",–
C/C(=N/NC(=O)c1cc(-c2cccc([N+](=O)[O-])c2)n[nH]1)c1cccc(O)c1,"7.94 µM [falling, partial curve, poor fit]",–
Cc1nc2nc(COc3ccccc3)[nH]n2c(=O)c1C,"5.8 µM [falling, full curve]",–
CCOc1ccccc1N(CC(=O)Nc1cc(OC)ccc1OC)S(=O)(=O)c1ccccc1,"5.62 µM [falling, partial curve, poor fit]",–
COc1ccc(OC)c(-c2csc(NC(=O)COC(=O)C3CC3)n2)c1,"6.51 µM [falling, single point]","6.51 µM [rising, partial curve, poor fit]"
COc1ccc(OCCCC(=O)Nc2nc(C)c(C(C)=O)s2)cc1,"3.55 µM [falling, full curve]",–
CCN(C1CCCCC1)S(=O)(=O)c1cn(C)c(=O)n(C)c1=O,"4.61 µM [rising, full curve]",–
COc1ccc(Nc2cc(C(=O)NCCCN3CCOCC3)c3ccccc3n2)cc1OC,"4.61 µM [falling, partial curve]",–
COc1cccc(C2C(C#N)=C(N)N(N(C)C)C3=C2C(=O)CC(C)(C)C3)c1OC (stereo unspecified),"6.31 µM [rising, single point]",–
CC1CCCCC1NC(=O)/C(C#N)=C/c1ccc(F)c(F)c1 (stereo unspecified),"4.11 µM [falling, partial curve]",–
COc1ccccc1NC(=O)C1=C(C)Nc2nnnn2C1c1cc(Br)ccc1OC (stereo unspecified),"20 µM [falling, partial curve, poor fit]",–
CCc1ncc(CN2CCCC(C(=O)Nc3ccc(-c4cscn4)cc3)C2)cn1 (stereo unspecified),"6.31 µM [falling, partial curve]",–

Compound,AC50 [1],AC50 [2]
Oc1ccc(C2C=C(c3ccc(F)cc3)Nc3ncnn32)cc1 (stereo unspecified),"6.31 µM [falling, single point]",–
COc1ccc(NC(=O)C(c2ccccc2)N2Cc3ccccc3C2=O)cc1 (stereo unspecified),"5.01 µM [rising, full curve, poor fit]",–
Cc1cc(C)c2[nH]c(=O)c(CN(Cc3ccc4c(c3)OCO4)Cc3nnnn3C3CCCC3)cc2c1,"20.6 µM [rising, single point]",–
COc1cc(S(=O)(=O)N2CCN(c3ccccn3)CC2)ccc1Br,"5.62 µM [rising, single point]",–
COc1cc(Cl)c(S(=O)(=O)N2CCOCC2)cc1Cl,"11.6 µM [rising, partial curve, poor fit]",–
COc1ccccc1-c1cc(C(=O)N2CCN(c3ccccc3)CC2)no1,"1.58 µM [falling, full curve]",–
CCOC(=O)N1CCN(C(=O)C(C)N(c2ccccc2)S(C)(=O)=O)CC1 (stereo unspecified),"3.16 µM [falling, single point]",–
O=C(N[C@@H]1C/C=C\C[C@@H](CC(=O)N(CCO)Cc2ccccc2)C(=O)NC[C@H](c2ccccc2)OC1=O)OCC1c2ccccc2-c2ccccc21,"0.92 µM [falling, full curve, poor fit]",–
COc1ccc(-c2nc3c(-c4ccccc4)cnn3cc2C)cc1F,"1.41 µM [falling, full curve, poor fit]",–
CC(C)(C)c1ccc(-c2noc(CCC(=O)NCC3CCCO3)n2)cc1 (stereo unspecified),"29.1 µM [falling, single point]",–
CCOC(=O)c1ccc(CN2C(=O)c3ccccc3S2(=O)=O)cc1,"31.6 µM [rising, single point]",–
OCCOCCN1CCN(C(=S)Nc2ccccc2)CC1,"0.398 µM [rising, full curve, poor fit]",–
Cc1cc(C)c(-c2cc(C(=O)Nc3c(C)n(C)n(-c4ccccc4)c3=O)[nH]n2)c(O)c1,"29.1 µM [falling, single point]",–
O=C(N/N=C\c1ccccc1)c1ccccc1-n1cccc1,"25.1 µM [rising, partial curve, poor fit]",–
CCc1ccc(C2=CC(c3cccc(C)c3)n3c(nc4ccccc43)N2)cc1 (stereo unspecified),"2.82 µM [falling, full curve]",–
COc1cc(NC(=O)c2cc3cccc(OC)c3o2)cc(C(=O)Nc2cccc(C(F)(F)F)c2)c1,"7.08 µM [falling, full curve]",–
CC(=O)n1cc(C(C[N+](=O)[O-])SCCN)c2ccccc21 (stereo unspecified),"22.4 µM [rising, single point]","28.2 µM [falling, single point]"
CC(=O)Nc1ccc(S(=O)(=O)NCCC(=O)Nc2cccc(Cl)c2)cc1,"3.55 µM [falling, single point]",–
O=C(O)C1CC=CCC1C(=O)c1ccccc1 (stereo unspecified),"2.31 µM [rising, partial curve, poor fit]",–
Cc1cc(C)cc(-n2nnnc2SCC(=O)Nc2cccc(NC(=O)c3ccco3)c2)c1,"4.47 µM [falling, partial curve]",–

# — PubChem BioAssay AID493014 (National Center for Advancing Translational Sciences (NCATS), 2011)
